Results taken from PubChem BioAssay AID720504 (National Center for Advancing Translational Sciences (NCATS), 2013).
Out of some 360,000 compounds screened, about 10,000 (2.8%) were called active. Inconclusive means that the source gave no clear call. Such entries were picked first, then a sample of the others. The call rests on the fitted dose curve; in most records, active means well fitted inhibition curve with a large enough effect; inconclusive means small, poorly fitted or top-dose-only effect; inactive means flat fitted curve, though single readings scatter. Potencies of inconclusive entries are doubtful fits and often do not repeat.

The chains behind the UniProt entries cited, without tags or fusion partners.
UniProt P53350, whole entry, looked up: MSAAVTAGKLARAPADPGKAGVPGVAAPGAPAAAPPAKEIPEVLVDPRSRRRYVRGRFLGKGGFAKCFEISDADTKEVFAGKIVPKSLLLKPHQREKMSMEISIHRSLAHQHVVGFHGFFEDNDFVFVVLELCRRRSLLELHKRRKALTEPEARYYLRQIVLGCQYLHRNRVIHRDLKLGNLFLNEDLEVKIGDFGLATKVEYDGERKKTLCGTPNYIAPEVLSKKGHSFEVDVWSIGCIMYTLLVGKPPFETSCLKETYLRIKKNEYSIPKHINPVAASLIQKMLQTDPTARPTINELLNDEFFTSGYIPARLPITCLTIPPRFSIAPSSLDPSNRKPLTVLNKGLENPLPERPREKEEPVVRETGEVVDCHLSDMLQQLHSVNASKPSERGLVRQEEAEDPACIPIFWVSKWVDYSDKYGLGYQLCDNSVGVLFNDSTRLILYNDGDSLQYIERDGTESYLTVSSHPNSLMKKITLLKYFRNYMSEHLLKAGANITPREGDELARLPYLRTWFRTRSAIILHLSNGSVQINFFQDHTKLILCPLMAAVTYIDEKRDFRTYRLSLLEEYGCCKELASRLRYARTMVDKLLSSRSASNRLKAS

The molecules below were run against Serine/threonine-protein kinase PLK1 (Homo sapiens) (UniProt P53350) (assay: qHTS for Inhibitors of PLK1-PDB (polo-like kinase 1 - polo-box domain): Primary Screen). Conditions: Plk1 PBD binding of FITC phosphopeptide, fluorescence polarization.
Further: nearly all actives have a fitted effect of over 65% in size.
On the % scale 0 is the no-effect control and ±100 the full control effect; potency means the concentration at half of the fitted maximal effect.
Wherever max response, negative = inhibition is given: series mostly up to about 57 µM.

Compound | Potency | max response, negative = inhibition
Cc1cc(NC(=O)CSc2cn(C)c3ccccc23)no1 | inconclusive: 23.8 µM [inhibitor, partial curve] | 
NC(=S)NC(c1ccccc1)c1ccncc1 (stereo not given) | inconclusive: 21.2 µM [inhibitor, single point] | 
Cc1ccsc1C1NC(=O)c2c(sc3c2CCCC3)N1 (stereo not given) | inconclusive: 21.2 µM [inhibitor, partial curve] | 
CC1(C)Cc2c(cnn2-c2ccc(F)cc2)C(NC(=O)CCN2CCCCC2=O)C1 (stereo not given) |  | inactive: 4.48%
COc1ccc(N(CC(=O)NCc2ccc3c(c2)OCO3)S(=O)(=O)c2ccccc2[N+](=O)[O-])c(OC)c1 |  | inactive: 0.468%
Cc1cc(C)cc(N2C(=O)CC(Sc3ccccc3C(=O)O)C2=O)c1 (stereo not given) |  | inactive: -19.4%
COc1ccc(NC(=O)Cn2nc(C(=O)O)c3ccccc3c2=O)cc1S(=O)(=O)N1CCCCC1 | inconclusive: 75.2 µM [inhibitor, partial curve] | 
O=C(O)CCN(Cc1ccccc1)S(=O)(=O)c1ccccc1Cl | inconclusive: 33.6 µM [inhibitor, single point] | 
COc1ccc(N2CC(C(=O)Nc3ccccc3N3CCCC3)CC2=O)c(OC)c1 (stereo not given) |  | inactive: -3.42%
CN(C)S(=O)(=O)c1cccc(C(=O)Nc2cc(S(=O)(=O)N3CCOCC3)ccc2N2CCCC2)c1 | active: 5.32 µM | 
CCCc1cc(C(=O)N2CCCC(C(=O)c3ccc(Cl)cc3)C2)n(C)n1 (stereo not given) | inconclusive: 29.9 µM [inhibitor, partial curve] | 
Cc1ccc(C(=O)NCC(=O)OCC(=O)NCCc2ccccc2)s1 | active: 26.7 µM | 
CCOc1ccc(-c2noc(CCC(=O)NC3CCCC3)n2)cc1OC | inconclusive: 37.7 µM [inhibitor, partial curve] | 
CCn1nc(C)c(CNC(=O)C2CCC(=O)N(Cc3ccc(Cl)cc3)C2)c1C (stereo not given) |  | inactive: -1.85%
CC(C)N1CCc2c(sc(NC(=O)CCS(=O)(=O)c3ccccc3)c2C#N)C1 |  | inactive: -19.9%
CCC1=NN2C(=N)/C(=C\c3cccn3-c3ccc(Cl)cc3)C(=O)N=C2S1 | inconclusive: 23.8 µM [inhibitor, single point] | 
COC(=O)Cc1ccc(NC(=S)Nc2ccccn2)cc1 |  | inactive: -2.35%
CC(Oc1ccc(Cl)cc1)C(=O)Nc1ncccn1 (stereo not given) | inconclusive: 37.7 µM [inhibitor, single point] | 
COc1cc(Cl)c(C)cc1NC(=O)CSc1cc(Cl)ccc1Cl | inconclusive: 5.97 µM [inhibitor, partial curve] | 
O=C(CNS(=O)(=O)c1ccc(F)cc1)N1CCCCCC1 | inconclusive: 16.8 µM [inhibitor, partial curve] | 

Copied from the list.
COc1ccc(N(CC(=O)NCc2ccc3c(c2)OCO3)S(=O)(=O)c2ccccc2[N+](=O)[O-])c(OC)c1 | max response, negative = inhibition: inactive: 0.468%
Cc1cc(C)cc(N2C(=O)CC(Sc3ccccc3C(=O)O)C2=O)c1 (stereo not given) | max response, negative = inhibition: inactive: -19.4%
